Among the data in article PMC4232348 are binding values, retold here.

No constants are given. Whether binding was seen depends on the method and setting. In cells and extracts the contact can be indirect. Binding calls can cover weak binding; strength is not graded here.

This assay deals with GFP-CG4996 (Drosophila melanogaster) (UniProt A1ZAY8). Put plainly: co-IP; GFP-Trap (ChromoTek) precipitation from extracts of cotransfected S2 cells; anti-myc immunoblot; inputs 10%. For orientation: In western blotting, separated proteins are transferred to a membrane and probed.

Turning to “CG3338-Myc (Vps53) (from UniProt Q9VQY8)”, the binding entry is listed as “binds”.

In the case of “CG7371-Myc (Vps52) (from UniProt Q9VMQ8)”, the binding entry is recorded as “binds”.
